{"sequences": {"note": "The chains behind the UniProt entries cited, without tags or fusion partners. Where a name states a change or a piece, a line headed by the entry shows the natural chain unless it says otherwise.", "UniProt P23492": "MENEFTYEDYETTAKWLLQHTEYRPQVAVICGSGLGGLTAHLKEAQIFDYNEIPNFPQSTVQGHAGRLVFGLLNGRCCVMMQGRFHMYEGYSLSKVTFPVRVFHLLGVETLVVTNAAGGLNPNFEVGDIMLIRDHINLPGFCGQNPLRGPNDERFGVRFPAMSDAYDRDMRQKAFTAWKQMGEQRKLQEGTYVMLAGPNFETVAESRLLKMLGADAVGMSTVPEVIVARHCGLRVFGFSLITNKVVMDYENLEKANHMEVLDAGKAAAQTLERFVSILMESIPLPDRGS", "UniProt P21279, whole entry": "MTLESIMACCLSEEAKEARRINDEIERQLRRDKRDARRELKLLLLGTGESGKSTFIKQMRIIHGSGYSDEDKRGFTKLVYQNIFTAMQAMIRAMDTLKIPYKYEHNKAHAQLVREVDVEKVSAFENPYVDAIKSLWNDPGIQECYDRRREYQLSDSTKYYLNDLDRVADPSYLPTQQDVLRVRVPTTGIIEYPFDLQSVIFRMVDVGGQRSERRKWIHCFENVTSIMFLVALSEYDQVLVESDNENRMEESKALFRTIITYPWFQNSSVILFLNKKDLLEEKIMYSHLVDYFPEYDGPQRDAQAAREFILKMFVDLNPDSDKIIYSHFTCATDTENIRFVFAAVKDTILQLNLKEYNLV", "UniProt P20852": "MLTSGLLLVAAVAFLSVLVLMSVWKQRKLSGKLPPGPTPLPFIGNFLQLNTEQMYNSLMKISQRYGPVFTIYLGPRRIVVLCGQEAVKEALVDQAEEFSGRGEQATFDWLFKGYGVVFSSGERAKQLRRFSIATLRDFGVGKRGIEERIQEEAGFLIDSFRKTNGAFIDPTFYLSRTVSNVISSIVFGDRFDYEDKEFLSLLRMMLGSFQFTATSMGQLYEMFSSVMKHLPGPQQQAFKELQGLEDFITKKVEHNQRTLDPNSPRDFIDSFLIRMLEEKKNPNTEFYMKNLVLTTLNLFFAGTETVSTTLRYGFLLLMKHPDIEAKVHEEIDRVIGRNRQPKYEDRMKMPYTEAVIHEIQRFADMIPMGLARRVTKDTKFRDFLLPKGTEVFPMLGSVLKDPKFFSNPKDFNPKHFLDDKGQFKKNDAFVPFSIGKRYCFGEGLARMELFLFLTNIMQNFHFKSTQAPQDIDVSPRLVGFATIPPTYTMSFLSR", "UniProt P35293": "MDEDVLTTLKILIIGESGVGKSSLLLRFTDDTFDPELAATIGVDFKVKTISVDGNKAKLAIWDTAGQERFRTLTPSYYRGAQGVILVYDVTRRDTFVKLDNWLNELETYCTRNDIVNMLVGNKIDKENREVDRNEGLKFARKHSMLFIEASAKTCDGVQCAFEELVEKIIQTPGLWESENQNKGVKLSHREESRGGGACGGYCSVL", "UniProt P30204": "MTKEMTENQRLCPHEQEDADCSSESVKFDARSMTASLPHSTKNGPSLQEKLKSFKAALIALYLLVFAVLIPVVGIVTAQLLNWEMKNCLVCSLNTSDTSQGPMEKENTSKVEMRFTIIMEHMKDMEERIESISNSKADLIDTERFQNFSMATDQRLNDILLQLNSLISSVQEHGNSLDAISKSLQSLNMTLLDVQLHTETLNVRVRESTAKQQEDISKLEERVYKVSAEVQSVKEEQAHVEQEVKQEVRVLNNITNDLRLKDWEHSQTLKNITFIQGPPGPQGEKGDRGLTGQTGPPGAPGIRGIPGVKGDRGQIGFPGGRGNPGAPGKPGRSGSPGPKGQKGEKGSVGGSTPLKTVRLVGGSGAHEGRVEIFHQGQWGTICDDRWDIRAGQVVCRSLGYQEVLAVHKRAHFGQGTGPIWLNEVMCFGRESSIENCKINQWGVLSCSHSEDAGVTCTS", "UniProt P17427, whole entry": "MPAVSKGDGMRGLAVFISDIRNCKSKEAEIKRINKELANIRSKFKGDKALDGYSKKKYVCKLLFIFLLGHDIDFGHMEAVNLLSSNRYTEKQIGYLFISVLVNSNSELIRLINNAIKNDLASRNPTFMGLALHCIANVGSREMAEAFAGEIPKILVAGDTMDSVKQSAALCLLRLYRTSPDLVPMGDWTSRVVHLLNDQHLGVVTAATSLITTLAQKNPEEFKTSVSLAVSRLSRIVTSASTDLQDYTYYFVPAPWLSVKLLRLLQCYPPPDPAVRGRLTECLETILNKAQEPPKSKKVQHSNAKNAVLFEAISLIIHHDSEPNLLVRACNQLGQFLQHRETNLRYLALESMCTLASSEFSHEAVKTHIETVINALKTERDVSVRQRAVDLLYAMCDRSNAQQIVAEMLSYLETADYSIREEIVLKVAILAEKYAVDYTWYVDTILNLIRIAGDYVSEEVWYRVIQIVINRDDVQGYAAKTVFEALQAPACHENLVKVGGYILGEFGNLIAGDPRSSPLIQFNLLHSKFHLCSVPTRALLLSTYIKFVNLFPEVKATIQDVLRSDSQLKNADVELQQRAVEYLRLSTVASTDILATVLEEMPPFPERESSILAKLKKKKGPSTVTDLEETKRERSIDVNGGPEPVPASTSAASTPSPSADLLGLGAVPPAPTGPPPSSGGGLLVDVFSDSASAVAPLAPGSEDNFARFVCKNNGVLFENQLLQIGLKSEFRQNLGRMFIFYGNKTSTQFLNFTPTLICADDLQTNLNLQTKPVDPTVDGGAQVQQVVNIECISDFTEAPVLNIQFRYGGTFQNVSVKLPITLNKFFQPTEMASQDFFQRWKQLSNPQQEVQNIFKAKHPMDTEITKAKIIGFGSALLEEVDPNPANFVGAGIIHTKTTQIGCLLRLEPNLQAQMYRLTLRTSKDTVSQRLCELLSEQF", "UniProt P19324": "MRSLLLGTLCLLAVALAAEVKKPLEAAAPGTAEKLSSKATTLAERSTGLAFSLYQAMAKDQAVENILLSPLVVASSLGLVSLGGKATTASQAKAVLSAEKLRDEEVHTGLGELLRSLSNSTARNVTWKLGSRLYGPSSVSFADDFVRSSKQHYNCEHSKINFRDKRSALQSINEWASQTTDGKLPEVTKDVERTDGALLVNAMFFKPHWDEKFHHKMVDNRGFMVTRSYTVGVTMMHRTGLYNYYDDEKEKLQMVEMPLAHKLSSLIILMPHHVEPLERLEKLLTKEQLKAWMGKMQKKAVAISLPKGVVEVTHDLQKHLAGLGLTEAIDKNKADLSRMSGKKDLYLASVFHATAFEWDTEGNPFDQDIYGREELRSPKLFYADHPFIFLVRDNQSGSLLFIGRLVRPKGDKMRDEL"}, "source": "the supplement of paper PMC12819154", "about": "“High-throughput peptide-centric local stability assay extends protein–ligand identification to membrane proteins, tissues and bacteria” (Nature Structural & Molecular Biology, 2025)", "note": "The other results are listed elsewhere or left out. Most entries show no effect beyond the scatter of the controls.", "data": [{"compound": "CN[C@@H]1C[C@H]2O[C@@](C)([C@@H]1OC)n1c3ccccc3c3c4c(c5c6ccccc6n2c5c31)C(=O)NC4 [staurosporine]", "assay": "log2 fold change of tryptic peptide abundance, ligand vs vehicle (limited proteolysis) (log2 ratio); higher = more trypsin-susceptible (destabilized)", "details": "ligand concentration: 20 uM; sample: mouse liver crude lysate; replicate design: treated separately", "values": [{"target": "UniProt P23492 (peptide sequence: FPAMSDAYDRDMR, peptide start residue: 159)", "log2 fold change": -0.234}, {"target": "UniProt P21279 (peptide sequence: RINDEIER, peptide start residue: 20)", "log2 fold change": -0.136}, {"target": "UniProt P20852 (peptide sequence: YGPVFTIYLGPRR, peptide start residue: 65)", "log2 fold change": 0.259}, {"target": "UniProt P35293 (peptide sequence: EVDRNEGLK, peptide start residue: 130)", "log2 fold change": -0.123}, {"target": "UniProt P30204 (peptide sequence: TKEMTENQR, peptide start residue: 2)", "log2 fold change": 0.0902}, {"target": "UniProt P16546 (peptide sequence: NNHHEENISSK, peptide start residue: 1940)", "log2 fold change": -0.756}, {"target": "UniProt P17427 (peptide sequence: ILVAGDTMDSVK, peptide start residue: 154)", "log2 fold change": -0.765}, {"target": "UniProt P19324 (peptide sequence: SYTVGVTMMHR, peptide start residue: 228)", "log2 fold change": 0.206}]}]}
